According to patent publication US20060040122A1, “Antimicrobial drywall” (Verichem, Inc., priority 2004, published 2006):
Counter-ions that a name gives are not always drawn. At least one compound was matched to its structure with a doubt left.

System: Aureobasidium pullulans ATCC 9348, Aspergillus niger ATCC 6275, Penicillium sp. ATCC 9849
Assay: ASTM Test Method D-3273 00, resistance to surface mold fungi and mildew, in adhesives
Conditions: similar tests, same organisms; in Titebond Solvent Free Fast Grab FRP Adhesive and Titebond Solvent Free Subfloor Adhesive
Text: In addition to experiments as described above, tests were made to compare combinations of DGH (dodecyl guanidine hydrochloride) and OPP against microorganisms known to generate what is commonly known as mildew, when used in caulking and/or adhesive materials used in bathtubs, showers and the like. ASTM (American Society for Testing Materials) Test Method D-3273 00, dealing with resistance to surface mold fungi and mildew was used. Generally, this is an accelerated test calling for a test chamber held at a relative humidity of 95 to 98% and a temperature of 32.5±1° C. (90±2° F.).
Five commercial adhesive compositions known to be susceptible to mildew growth were tested using the microorgainsms Aureobasidium pullulans ATCC 9348, Aspergillus niger ATCC 6275, Penicillium sp. ATCC 9849.
Following this test, a composition comprising 10 g of OPP and 30 g of dodecyl guanidine hydrochloride (DGH) was incorporated into samples of Titebond™ Professional Tub Surround Adhesive at concentrations of 150, 250, 500, 750, and 1000 ppm and the adhesive was tested in the same manner as in Table 2. At 28 days, all of the DGH/OPP compositions were rated at 10.

With `CCCCCCCCCCCCNC(=N)N` [DGH, Dodecyl guanidine hydrochloride] as the molecule, how does the mildew inhibition read?
The mildew inhibition was “effective mildew inhibitors”.
